This is an account of results in PMC11342374 (2024).

A short description of the data set: general procedure: Fmoc solid-phase peptide synthesis; polystyrene-supported MBHA Fmoc-protected Rink amide resin (0.64 mmol/g loading, Protein Technologies); bromoacetic acid / DIC (submonomer method). The settings on record: whole synthesis, HPLC-UV, ACQUITY UPLC protein BEH C4 column, scale of the general procedure 200 mg scale of the general procedure.
On to Aet-Dod-Dod-Dod-Dod, for which the “purity (crude or final not stated)” value turned out to be 87.12%.

For Apd-Dec-Dec-Dec-Dec, the “purity (crude or final not stated)” value is recorded as 96.62%.

Apd-Dec-Dec-Ehx-Dec-Dec-Ehx: the “purity (crude or final not stated)” value was determined as 99.64%. As to Apd-Dec-Dod-Dec-Dec-Dod-Dec, the “purity (crude or final not stated)” value is recorded as 80.69%. For the substance Apd-Dec-Ehx-Dec-Dec-Ehx-Dec, the “purity (crude or final not stated)” value was 91.31%. On to Apd-Dod-Dec-Dod-Dec, for which the “purity (crude or final not stated)” value worked out at 98.4%. Apd-Dod-Dod-Dod-Dod: the “purity (crude or final not stated)” value stood at 96.89%. With Apd-Dod-Dod-Dod-Dod-Dod-Dod, the “purity (crude or final not stated)” value is on record as 87.77%. Regarding Apd-Dod-Dod-Ehx-Dod-Dod-Ehx, the “purity (crude or final not stated)” value came out at 94.48%. As to Apd-Dod-Dod-Oct-Dod-Dod-Oct, the “purity (crude or final not stated)” value worked out at 91.21%. With Apd-Dod-Ehx-Dod-Dod-Ehx-Dod, the “purity (crude or final not stated)” value is 90.41%.

On to Apd-Dod-Ehx-Dod-Ehx, for which the “purity (crude or final not stated)” value came out at 100%. Consider Apd-Dod-Ehx-Ehx-Dod-Ehx-Ehx, for which the “purity (crude or final not stated)” value was found to be 97.52%. Take Apd-Dod-Ole-Dod: the “purity (crude or final not stated)” value was 89.1%.

Regarding Apd-Ehx-Dec-Dec-Dec-Ehx-Dec-Dec-Dec, the “purity (crude or final not stated)” value is 91.07%. In the case of Apd-Ehx-Dod-Dod-Hex-Ehx-Dod-Dod-Hex it was 95.93%.

For the substance Apd-Ehx-Dod-Ehx-Ehx-Dod-Ehx, the “purity (crude or final not stated)” value is on record as 93.88%. In the case of Apd-Ehx-Dod-Hex-Hex-Ehx-Dod-Hex-Hex, the “purity (crude or final not stated)” value is given as 93.4%. In the case of Apd-Ehx-Ehx-Ehx-Ehx, the “purity (crude or final not stated)” value came out at 100%. With Apd-Ehx-Ehx-Hex-Ehx-Ehx-Hex, the “purity (crude or final not stated)” value is listed as 96.49%.

Regarding Apd-Ehx-Hex-Ehx-Hex-Ehx-Hex-Ehx-Hex, the “purity (crude or final not stated)” value is given as 93.19%. With Apd-Ehx-Oct-Oct-Oct-Ehx-Oct-Oct-Oct, the “purity (crude or final not stated)” value was determined as 93.66%.

Apd-Hex-Dod-Ehx-Hex-Dod-Ehx: the “purity (crude or final not stated)” value came out at 94.12%. In the case of Apd-Hex-Hex-Hex-Hex-Hex-Hex-Hex-Hex, the “purity (crude or final not stated)” value came out at 92.22%.

On to Apd-Oct-Dec-Ehx-Oct-Dec-Ehx, for which the “purity (crude or final not stated)” value worked out at 96.01%. In the case of Apd-Oct-Dec-Hex-Oct-Dec-Hex it was 60.41%; in that of Apd-Oct-Dod-Ehx-Oct-Dod-Ehx, 93.49%. Under Apd-Oct-Hex-Hex-Hex-Hex-Hex-Hex-Oct stands 92.79%; under Apd-Oct-Oct-Dec-Oct-Oct-Dec, 95.3%; under Apd-Oct-Oct-Hex-Oct-Oct-Hex, 85.35%. For Apd-Ole-Dec-Ole, the “purity (crude or final not stated)” value was 81.18%. On to Apd-Ole-Dec-Ole-Dec, for which the “purity (crude or final not stated)” value turned out to be 63.81%. Regarding Apd-Ole-Hex-Hex-Hex-Ole-Hex-Hex-Hex, the “purity (crude or final not stated)” value is 53.34%.

In the case of Apd-Ole-Oct-Ole, the “purity (crude or final not stated)” value is on record as 68.5%. In the case of Apd-Ole-Oct-Ole-Oct it was 62.25%; in that of Apr-Dod-Dod-Dod-Dod, 82.98%.

For Dea-Dod-Dod-Dod-Dod, the “purity (crude or final not stated)” value came to 90.83%. Dme-Dod-Dod-Dod-Dod: the “purity (crude or final not stated)” value is reported as 81.18%. With Eae-Dod-Dod-Dod-Dod, the “purity (crude or final not stated)” value is 94.12%.

As for Mip-Dod-Dod-Dod-Dod, the “purity (crude or final not stated)” value amounted to 87.94%.

Turning to Mop-Dod-Dod-Dod-Dod, the “purity (crude or final not stated)” value was found to be 98.5%.

Regarding Nhe-Dod-Dod-Dod-Dod, the “purity (crude or final not stated)” value was 90.86%. For Nhp-Dod-Dod-Dod-Dod, the “purity (crude or final not stated)” value came to 94.036%.

Take Nme-Dod-Dod-Dod-Dod: the “purity (crude or final not stated)” value is 87.24%. Under Nmp-Dod-Dod-Dod-Dod stands 99.09%.
